{"source": "PubChem BioAssay AID256", "about": "(DTP/NCI, 2004)", "tested_on": "CD2F1 mice, L1210 leukemia ip, survival T/C", "assay": "NCI In Vivo Anticancer Drug Screen. Data for tumor model L1210 Leukemia (intraperitoneal) in CD2F1 (CDF1) mice", "settings": "T/C endpoint: mean survival time, higher T/C = longer survival", "method_in_brief": "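Mice carrying a transplanted tumor received test compound or vehicle alone. The value is the measurement in the treated group divided by that in the vehicle-treated control group.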", "key": {"[1]": {"settings": "dose: 300.0 mg/kg/injection, schedule: Q01DX001 (ip), vehicle: saline"}, "[2]": {"settings": "dose: 200.0 mg/kg/injection, schedule: Q01DX001 (ip), vehicle: saline with Tween-80"}, "[3]": {"settings": "dose: 400.0 mg/kg/injection, schedule: Q01DX001 (ip), vehicle: saline with Tween-80"}, "[4]": {"settings": "dose: 100.0 mg/kg/injection, schedule: Q01DX001 (ip), vehicle: saline with Tween-80"}, "[5]": {"settings": "dose: 25.0 mg/kg/injection, schedule: Q04DX002 (ip), vehicle: saline with Tween-80"}, "[6]": {"settings": "dose: 50.0 mg/kg/injection, schedule: Q04DX002 (ip), vehicle: saline with Tween-80"}, "[7]": {"settings": "dose: 100.0 mg/kg/injection, schedule: Q04DX002 (ip), vehicle: saline with Tween-80"}, "[8]": {"settings": "dose: 200.0 mg/kg/injection, schedule: Q01DX009 (ip), vehicle: saline with Tween-80"}, "[9]": {"settings": "dose: 200.0 mg/kg/injection, schedule: Q04DX002 (ip), vehicle: saline with Tween-80"}, "[10]": {"settings": "dose: 200.0 mg/kg/injection, schedule: Q04DX003 (ip), vehicle: saline with Tween-80"}, "[11]": {"settings": "dose: 400.0 mg/kg/injection, schedule: Q04DX002 (ip), vehicle: saline with Tween-80"}, "[12]": {"settings": "dose: 12.5 mg/kg/injection, schedule: Q01DX009 (ip), vehicle: saline with Tween-80"}, "[13]": {"settings": "dose: 25.0 mg/kg/injection, schedule: Q01DX009 (ip), vehicle: saline with Tween-80"}, "[14]": {"settings": "dose: 400.0 mg/kg/injection, schedule: Q01DX009 (ip), vehicle: saline with Tween-80"}, "[15]": {"settings": "dose: 400.0 mg/kg/injection, schedule: Q04DX003 (ip), vehicle: saline with Tween-80"}, "[16]": {"settings": "dose: 100.0 mg/kg/injection, schedule: Q04DX003 (ip), vehicle: saline with Tween-80"}, "[17]": {"settings": "dose: 100.0 mg/kg/injection, schedule: Q01DX009 (ip), vehicle: saline with Tween-80"}}, "note": "The list does not hold the whole screen: it is rich in T/C values a quarter to a half above the control, in often repeated tests (any T/C) and in doses without a T/C. Further doses and runs are listed elsewhere. T/C: endpoint of the treated group in % of that of the vehicle group. Some doses have a count of surviving animals in place of a T/C: the source files T/C as zero there, which appears to mark a toxic dose or a test without result, not a measured value. Some survivor counts are full or nearly so, which does not show that the dose was tolerated: the source hardly ever lists a survival T/C far under the control, and the zero likely stands for such cases as well. Counts of survivors are from the toxicity check (mostly the fifth day) where no day follows; animals may have died later. Schedules are NCI's codes, read here as Q, the interval in days (D) or hours (H), X, the number of doses. Some entries were tested several times; the values are given in rising order. Where survival is the endpoint, the PubChem record calls one and a half times the control and up active, and a quarter to a half above the control has no call in these data; cut-offs in other NCI protocols can differ. Some T/C values carry the count of animals alive at the toxicity check (mostly the fifth day); without a count, all were alive then.", "data": [{"smiles": "COc1cc2c(cc1OC)C13CCN4CC5=CCOC(CC(=O)O)C(C5CC41)C3N2", "note": "(centres undefined)", "values": [{"measurement": "survivor count", "setting": "dose: 150.0 mg/kg/injection, schedule: Q01DX001 (ip), vehicle: other", "value": "3 of 6"}, {"measurement": "survivor count", "setting": "dose: 300.0 mg/kg/injection, schedule: Q01DX001 (ip), vehicle: other", "value": "3 of 6"}, {"measurement": "survivor count", "setting": "[1]", "value": "1 of 6"}]}, {"smiles": "Cc1ccc(S(=O)(=O)N(CCCc2c(C)nc(N)nc2Nc2ccccc2)c2ccccc2)cc1", "values": [{"measurement": "survivor count", "setting": "[2]", "value": "3 of 6"}, {"measurement": "survivor count", "setting": "[3]", "value": "0 of 6"}]}, {"smiles": "O=C(Nc1ccccc1)OC1CCCCC1OC(=O)Nc1ccccc1", "note": "(centres undefined)", "values": [{"measurement": "survivor count", "setting": "[4]", "value": "6 of 6"}, {"measurement": "survivor count", "setting": "[2]", "value": "6 of 6"}]}, {"smiles": "N#CC(c1ccccn1)N1CCOCC1", "note": "(centres undefined)", "values": [{"measurement": "T/C", "setting": "[5]", "value": "93, 95, 96, 126 % of control"}, {"measurement": "T/C", "setting": "[6]", "value": "97, 101, 104, 106 % of control"}, {"measurement": "T/C", "setting": "[7]", "value": "93, 98, 100, 110 % of control"}, {"measurement": "survivor count", "setting": "[8]", "value": "1 of 6 and 1 of 3"}, {"measurement": "survivor count", "setting": "[9]", "value": "0 of 3"}, {"measurement": "survivor count", "setting": "[10]", "value": "1 of 6"}, {"measurement": "survivor count", "setting": "[11]", "value": "0 of 3 and 0 of 6"}]}, {"smiles": "COc1cc2c3c(c1)-c1c(ccc(OC)c1OC)CC3N(CCCl)CC2", "note": "(centres undefined)", "values": [{"measurement": "survivor count", "setting": "dose: 100.0 mg/kg/injection, schedule: Q04DX003 (ip), vehicle: water", "value": "2 of 6"}, {"measurement": "survivor count", "setting": "dose: 200.0 mg/kg/injection, schedule: Q04DX003 (ip), vehicle: water", "value": "0 of 6"}, {"measurement": "survivor count", "setting": "dose: 400.0 mg/kg/injection, schedule: Q04DX003 (ip), vehicle: water", "value": "0 of 6"}]}, {"smiles": "O=C(O)c1ccccc1F", "values": [{"measurement": "survivor count", "setting": "[3]", "value": "2 of 6"}]}, {"smiles": "CCNc1ncnc2nncnc12", "values": [{"measurement": "survivor count", "setting": "dose: 200.0 mg/kg/injection, schedule: Q01DX001 (ip), vehicle: carboxymethylcellulose (CMC)", "value": "2 of 6"}, {"measurement": "survivor count", "setting": "dose: 400.0 mg/kg/injection, schedule: Q01DX001 (ip), vehicle: carboxymethylcellulose (CMC)", "value": "0 of 6"}]}, {"smiles": "CCC(C)OP(=S)(S)OC(C)CC.[Zn+2]", "note": "(centres undefined)", "values": [{"measurement": "survivor count", "setting": "dose: 1.5 mg/kg/injection, schedule: Q01DX009 (ip), vehicle: saline with Tween-80", "value": "3 of 3"}, {"measurement": "survivor count", "setting": "dose: 6.25 mg/kg/injection, schedule: Q01DX009 (ip), vehicle: saline with Tween-80", "value": "3 of 3 and 6 of 6"}, {"measurement": "T/C", "setting": "[12]", "value": "88 [5 of 6 alive], 91, 92 % of control"}, {"measurement": "survivor count", "setting": "[12]", "value": "6 of 6"}, {"measurement": "survivor count", "setting": "[13]", "value": "5 of 6 and 3 of 3"}, {"measurement": "survivor count", "setting": "dose: 50.0 mg/kg/injection, schedule: Q01DX001 (ip), vehicle: saline with Tween-80", "value": "0 of 6"}, {"measurement": "survivor count", "setting": "dose: 50.0 mg/kg/injection, schedule: Q01DX009 (ip), vehicle: saline with Tween-80", "value": "0 of 3 and 1 of 6"}, {"measurement": "survivor count", "setting": "dose: 50.0 mg/kg/injection, schedule: Q04DX003 (ip), vehicle: saline with Tween-80", "value": "0 of 6"}, {"measurement": "survivor count", "setting": "[4]", "value": "0 of 6"}, {"measurement": "survivor count", "setting": "[7]", "value": "0 of 6 and 1 of 3"}, {"measurement": "survivor count", "setting": "[9]", "value": "0 of 6"}, {"measurement": "survivor count", "setting": "[11]", "value": "0 of 6"}]}, {"smiles": "C=CCCCCCCCCC(=O)N1CCOCC1", "values": [{"measurement": "survivor count", "setting": "dose: 200.0 mg/kg/injection, schedule: Q04DX002 (ip), vehicle: saline", "value": "1 of 3"}, {"measurement": "survivor count", "setting": "dose: 400.0 mg/kg/injection, schedule: Q04DX002 (ip), vehicle: saline", "value": "1 of 3"}]}, {"smiles": "Nc1nc2c(ncn2-c2ccc(Cl)c(Cl)c2)c(=O)[nH]1", "values": [{"measurement": "survivor count", "setting": "[9]", "value": "3 of 3"}]}, {"smiles": "COc1cc(OC)c2c(c1Cl)OCC2=O", "values": [{"measurement": "survivor count", "setting": "[14]", "value": "2 of 6"}]}, {"smiles": "O=C(O)CC1C=CCC1", "note": "(centres undefined)", "values": [{"measurement": "survivor count", "setting": "[10]", "value": "0 of 3"}, {"measurement": "survivor count", "setting": "[15]", "value": "0 of 3"}]}, {"smiles": "C(=C\\c1cc[n+](CCc2ccccc2)cc1)/c1ccccc1", "values": [{"measurement": "survivor count", "setting": "[16]", "value": "0 of 6"}, {"measurement": "survivor count", "setting": "[10]", "value": "0 of 6"}, {"measurement": "survivor count", "setting": "[15]", "value": "0 of 6"}]}, {"smiles": "CCOC(=O)/C(C#N)=N/O", "values": [{"measurement": "survivor count", "setting": "dose: 150.0 mg/kg/injection, schedule: Q01DX001 (ip), vehicle: saline", "value": "0 of 6"}, {"measurement": "survivor count", "setting": "[1]", "value": "0 of 6"}]}, {"smiles": "CCCCCCCCCCCCCCCc1nnc(SC)s1", "values": [{"measurement": "survivor count", "setting": "[8]", "value": "6 of 6"}]}, {"smiles": "c1cc2c(c(NC3=NCCN3)c1)CCCC2", "values": [{"measurement": "survivor count", "setting": "[16]", "value": "1 of 6"}, {"measurement": "survivor count", "setting": "[10]", "value": "0 of 6"}, {"measurement": "survivor count", "setting": "[15]", "value": "0 of 6"}]}, {"smiles": "Nc1cc(=O)c2cn[nH]c2[nH]1", "values": [{"measurement": "survivor count", "setting": "dose: 200.0 mg/kg/injection, schedule: Q01DX005 (ip), vehicle: other", "value": "6 of 6"}]}, {"smiles": "O=c1c2ccsc2ncn1C1OC(CO)C(O)C1O", "note": "(centres undefined)", "values": [{"measurement": "survivor count", "setting": "[17]", "value": "2 of 3"}, {"measurement": "survivor count", "setting": "[8]", "value": "2 of 3"}, {"measurement": "survivor count", "setting": "[14]", "value": "0 of 3"}]}, {"smiles": "Cc1cc(C)c(N2C(=O)C=CC2=O)c(C)c1", "values": [{"measurement": "survivor count", "setting": "[12]", "value": "5 of 6"}, {"measurement": "survivor count", "setting": "[13]", "value": "2 of 6"}, {"measurement": "survivor count", "setting": "[5]", "value": "0 of 3"}, {"measurement": "survivor count", "setting": "[6]", "value": "0 of 3"}, {"measurement": "survivor count", "setting": "[7]", "value": "0 of 3"}]}, {"smiles": "O=C1C=CC(=O)C(Sc2ccccc2)=C1", "values": [{"measurement": "survivor count", "setting": "[17]", "value": "1 of 6"}, {"measurement": "survivor count", "setting": "[8]", "value": "2 of 6"}, {"measurement": "survivor count", "setting": "[14]", "value": "2 of 6"}]}]}
